Reference: PubChem BioAssay AID1259327 (Drosophila RNAi Screening Center, 2017)
Purpose: 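Data from controls in screens of zinc and manganese toxicity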. System: Drosophila S2R+ cells. Knock-down reagent: long dsRNA against Drosophila genes. Time to read-out: 5 days (water added on day 4, read one day later). Challenge: water added as vehicle, no metal, one day before read-out. Detection: 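Total ATP measured by luciferase light, scaled to plate mean, duplicates averaged, then z-scored across plates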. Reading the numbers: ATP z-score: higher = more total ATP than typical wells; ATP luminescence: higher = more total ATP. Rule for the call: 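a hit is any knock-down whose absolute ATP z-score is greater than 1.5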. Meaning of the calls: active = hit: ATP up or down; inactive = no clear ATP change.
The whole screen tested about 3,100 reagents; this is an unselected part. Of all reagents, 378 (12%) got an active call. 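Hits include both directions; z-score sign shows ATP rise or fall; raw luminescence values are not plate-normalised.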 A number with no mark means an inactive call. Reagents against one gene are numbered here. The record does not give: the amount of reagent.

{"gene":"rst","reagent":1,"ATP z-score, duplicate mean":-0.348,"ATP luminescence, replicate 1 (RLU)":8.81e5,"ATP luminescence, replicate 2 (RLU)":8.21e5}
{"gene":"rst","reagent":2,"ATP z-score, duplicate mean":-0.991,"ATP luminescence, replicate 1 (RLU)":5.57e5,"ATP luminescence, replicate 2 (RLU)":7.41e5}
{"gene":"rst","reagent":3,"ATP z-score, duplicate mean":1.22,"ATP luminescence, replicate 1 (RLU)":5.13e5,"ATP luminescence, replicate 2 (RLU)":5.53e5}
{"gene":"Syx1A","reagent":1,"ATP z-score, duplicate mean":"2.3 (active)","ATP luminescence, replicate 1 (RLU)":4.33e5,"ATP luminescence, replicate 2 (RLU)":9.34e5}
{"gene":"Syx1A","reagent":2,"ATP z-score, duplicate mean":1.41,"ATP luminescence, replicate 1 (RLU)":7.85e5,"ATP luminescence, replicate 2 (RLU)":6.12e5}
{"gene":"PIG-F","reagent":1,"ATP z-score, duplicate mean":-0.291,"ATP luminescence, replicate 1 (RLU)":8.53e5,"ATP luminescence, replicate 2 (RLU)":8.62e5}
{"gene":"PIG-F","reagent":2,"ATP z-score, duplicate mean":-1.19,"ATP luminescence, replicate 1 (RLU)":8.72e5,"ATP luminescence, replicate 2 (RLU)":1.04e6}
{"gene":"MFS3","reagent":1,"ATP z-score, duplicate mean":-0.199,"ATP luminescence, replicate 1 (RLU)":6.96e5,"ATP luminescence, replicate 2 (RLU)":6.75e5}
{"gene":"MFS3","reagent":2,"ATP z-score, duplicate mean":0.386,"ATP luminescence, replicate 1 (RLU)":9.07e5,"ATP luminescence, replicate 2 (RLU)":8.35e5}
{"gene":"gny","reagent":1,"ATP z-score, duplicate mean":1.44,"ATP luminescence, replicate 1 (RLU)":5.65e5,"ATP luminescence, replicate 2 (RLU)":5.96e5}
{"gene":"gny","reagent":2,"ATP z-score, duplicate mean":-0.723,"ATP luminescence, replicate 1 (RLU)":4.74e5,"ATP luminescence, replicate 2 (RLU)":3.56e5}
{"gene":"CG1924","reagent":1,"ATP z-score, duplicate mean":1.48,"ATP luminescence, replicate 1 (RLU)":7.01e5,"ATP luminescence, replicate 2 (RLU)":8.05e5}
{"gene":"CG1924","reagent":2,"ATP z-score, duplicate mean":-0.326,"ATP luminescence, replicate 1 (RLU)":8.33e5,"ATP luminescence, replicate 2 (RLU)":7.38e5}
{"gene":"CG17660","reagent":1,"ATP z-score, duplicate mean":-0.282,"ATP luminescence, replicate 1 (RLU)":4.57e5,"ATP luminescence, replicate 2 (RLU)":4.61e5}
{"gene":"CG17660","reagent":2,"ATP z-score, duplicate mean":0.772,"ATP luminescence, replicate 1 (RLU)":4.91e5,"ATP luminescence, replicate 2 (RLU)":5.45e5}

Part of the list above, showing only “ATP z-score, duplicate mean”:
rst #1 = -0.348
rst #2 = -0.991

Continued.
{"gene":"l(2)k05819","reagent":1,"ATP z-score, duplicate mean":"1.95 (active)","ATP luminescence, replicate 1 (RLU)":6.38e5,"ATP luminescence, replicate 2 (RLU)":5.91e5}
{"gene":"l(2)k05819","reagent":2,"ATP z-score, duplicate mean":-0.925,"ATP luminescence, replicate 1 (RLU)":3.81e5,"ATP luminescence, replicate 2 (RLU)":4.25e5}
{"gene":"Nckx30C","reagent":1,"ATP z-score, duplicate mean":-1.26,"ATP luminescence, replicate 1 (RLU)":6.01e5,"ATP luminescence, replicate 2 (RLU)":5.85e5}
{"gene":"Nckx30C","reagent":2,"ATP z-score, duplicate mean":0.518,"ATP luminescence, replicate 1 (RLU)":7.54e5,"ATP luminescence, replicate 2 (RLU)":8.08e5}
{"gene":"Nckx30C","reagent":3,"ATP z-score, duplicate mean":"1.87 (active)","ATP luminescence, replicate 1 (RLU)":1.07e6,"ATP luminescence, replicate 2 (RLU)":1.21e6}
{"gene":"nSyb","reagent":1,"ATP z-score, duplicate mean":-0.059,"ATP luminescence, replicate 1 (RLU)":7.07e5,"ATP luminescence, replicate 2 (RLU)":7.43e5}
{"gene":"nSyb","reagent":2,"ATP z-score, duplicate mean":"-1.97 (active)","ATP luminescence, replicate 1 (RLU)":7.97e5,"ATP luminescence, replicate 2 (RLU)":8.36e5}
{"gene":"rumpel","reagent":1,"ATP z-score, duplicate mean":"1.69 (active)","ATP luminescence, replicate 1 (RLU)":6.94e5,"ATP luminescence, replicate 2 (RLU)":7.59e5}
{"gene":"rumpel","reagent":2,"ATP z-score, duplicate mean":"-2.25 (active)","ATP luminescence, replicate 1 (RLU)":3.27e5,"ATP luminescence, replicate 2 (RLU)":2.83e5}
